No constants are given. Whether binding was seen depends on the method and setting. In cells and extracts the contact can be indirect. A yes stands for co-enrichment or nearness to the bait. Other partners may have been found.

Sequences of proteins named here, by UniProt entry; tags and fusion partners are left off.
UniProt O43347: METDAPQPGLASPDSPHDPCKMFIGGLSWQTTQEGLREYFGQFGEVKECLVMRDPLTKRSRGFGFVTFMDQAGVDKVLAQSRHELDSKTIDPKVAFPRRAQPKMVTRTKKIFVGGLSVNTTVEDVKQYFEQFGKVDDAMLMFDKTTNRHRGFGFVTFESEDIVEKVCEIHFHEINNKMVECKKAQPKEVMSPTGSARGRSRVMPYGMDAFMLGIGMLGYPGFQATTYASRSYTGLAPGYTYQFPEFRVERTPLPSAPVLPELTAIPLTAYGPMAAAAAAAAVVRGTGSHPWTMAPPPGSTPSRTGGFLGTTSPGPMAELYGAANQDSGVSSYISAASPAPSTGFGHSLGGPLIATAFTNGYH
UniProt P19525: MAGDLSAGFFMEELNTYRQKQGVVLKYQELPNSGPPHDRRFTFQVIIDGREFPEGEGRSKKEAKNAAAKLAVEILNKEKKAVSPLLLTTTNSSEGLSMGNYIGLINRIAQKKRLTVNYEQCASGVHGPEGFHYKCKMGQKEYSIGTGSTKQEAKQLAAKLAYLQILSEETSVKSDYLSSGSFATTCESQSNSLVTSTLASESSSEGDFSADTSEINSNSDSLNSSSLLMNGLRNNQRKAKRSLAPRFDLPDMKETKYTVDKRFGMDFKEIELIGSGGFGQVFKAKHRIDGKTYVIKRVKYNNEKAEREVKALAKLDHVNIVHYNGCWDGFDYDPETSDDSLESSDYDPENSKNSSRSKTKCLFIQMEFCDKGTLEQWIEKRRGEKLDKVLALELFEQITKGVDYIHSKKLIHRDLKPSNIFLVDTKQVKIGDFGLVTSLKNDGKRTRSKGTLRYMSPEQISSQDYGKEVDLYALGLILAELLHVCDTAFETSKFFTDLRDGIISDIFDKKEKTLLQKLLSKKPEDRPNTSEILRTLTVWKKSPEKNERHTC
UniProt P11940: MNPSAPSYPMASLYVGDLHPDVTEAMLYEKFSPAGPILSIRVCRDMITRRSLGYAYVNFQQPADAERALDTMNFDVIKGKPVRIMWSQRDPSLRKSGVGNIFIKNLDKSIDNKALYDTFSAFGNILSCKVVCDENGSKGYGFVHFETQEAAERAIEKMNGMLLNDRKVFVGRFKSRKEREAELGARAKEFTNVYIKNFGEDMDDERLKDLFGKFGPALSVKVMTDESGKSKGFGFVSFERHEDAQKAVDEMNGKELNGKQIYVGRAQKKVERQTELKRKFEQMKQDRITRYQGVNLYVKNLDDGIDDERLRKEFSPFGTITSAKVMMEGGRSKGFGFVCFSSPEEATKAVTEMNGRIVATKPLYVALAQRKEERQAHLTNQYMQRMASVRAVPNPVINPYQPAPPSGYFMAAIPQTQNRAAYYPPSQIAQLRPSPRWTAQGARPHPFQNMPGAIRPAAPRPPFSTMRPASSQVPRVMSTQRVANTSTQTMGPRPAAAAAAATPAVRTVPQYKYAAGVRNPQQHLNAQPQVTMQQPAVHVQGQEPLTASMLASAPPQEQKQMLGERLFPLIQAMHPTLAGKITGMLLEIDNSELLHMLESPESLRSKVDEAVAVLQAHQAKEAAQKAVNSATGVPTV
UniProt Q9P2K8: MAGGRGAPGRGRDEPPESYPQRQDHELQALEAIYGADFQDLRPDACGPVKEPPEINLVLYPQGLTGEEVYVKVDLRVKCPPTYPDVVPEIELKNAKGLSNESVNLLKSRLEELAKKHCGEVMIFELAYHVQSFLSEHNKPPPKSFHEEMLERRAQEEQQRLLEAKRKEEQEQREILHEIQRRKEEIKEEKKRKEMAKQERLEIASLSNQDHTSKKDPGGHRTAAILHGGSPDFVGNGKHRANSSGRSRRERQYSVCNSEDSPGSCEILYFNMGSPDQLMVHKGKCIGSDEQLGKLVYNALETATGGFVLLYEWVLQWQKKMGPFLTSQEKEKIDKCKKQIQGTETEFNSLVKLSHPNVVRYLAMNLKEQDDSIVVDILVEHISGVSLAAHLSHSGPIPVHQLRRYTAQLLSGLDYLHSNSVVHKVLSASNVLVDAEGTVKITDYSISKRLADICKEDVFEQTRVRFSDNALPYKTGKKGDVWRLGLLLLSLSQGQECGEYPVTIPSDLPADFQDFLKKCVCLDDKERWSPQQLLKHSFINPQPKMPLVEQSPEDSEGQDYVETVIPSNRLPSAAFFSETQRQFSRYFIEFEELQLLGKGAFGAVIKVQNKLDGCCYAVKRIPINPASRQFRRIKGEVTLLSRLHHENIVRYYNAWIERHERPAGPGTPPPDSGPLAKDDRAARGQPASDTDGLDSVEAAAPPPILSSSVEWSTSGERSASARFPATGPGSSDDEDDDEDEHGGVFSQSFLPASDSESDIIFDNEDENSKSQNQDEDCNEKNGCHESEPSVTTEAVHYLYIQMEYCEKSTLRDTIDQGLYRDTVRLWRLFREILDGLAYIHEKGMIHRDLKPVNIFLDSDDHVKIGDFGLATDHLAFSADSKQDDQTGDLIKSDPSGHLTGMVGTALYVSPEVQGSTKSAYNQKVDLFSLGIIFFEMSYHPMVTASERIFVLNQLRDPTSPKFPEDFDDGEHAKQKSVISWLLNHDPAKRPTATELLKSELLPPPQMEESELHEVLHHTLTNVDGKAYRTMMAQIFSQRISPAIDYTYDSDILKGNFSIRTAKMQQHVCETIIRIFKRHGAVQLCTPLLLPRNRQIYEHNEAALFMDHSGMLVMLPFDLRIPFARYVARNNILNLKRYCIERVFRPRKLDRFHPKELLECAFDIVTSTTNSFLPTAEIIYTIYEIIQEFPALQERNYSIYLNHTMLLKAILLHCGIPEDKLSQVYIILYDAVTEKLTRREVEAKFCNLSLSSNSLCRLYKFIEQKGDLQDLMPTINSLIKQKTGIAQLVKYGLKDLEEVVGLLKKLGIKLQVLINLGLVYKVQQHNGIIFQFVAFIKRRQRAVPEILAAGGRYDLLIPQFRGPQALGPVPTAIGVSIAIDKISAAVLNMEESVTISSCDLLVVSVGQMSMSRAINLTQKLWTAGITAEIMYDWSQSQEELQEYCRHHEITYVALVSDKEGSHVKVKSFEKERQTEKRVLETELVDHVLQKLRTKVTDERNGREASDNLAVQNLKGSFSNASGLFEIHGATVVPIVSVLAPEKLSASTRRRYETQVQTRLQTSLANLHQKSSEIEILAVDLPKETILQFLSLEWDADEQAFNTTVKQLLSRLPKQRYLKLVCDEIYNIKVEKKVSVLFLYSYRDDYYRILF

In this assay the target is Flag-tagged wild-type MSI1 (Musashi-1) (human) (UniProt O43347). Description: affinity purification with mass spectrometry; Flag-tagged MSI1 protein complex purified from the cytosolic fraction of 05MG cells under normoxia or hypoxia.
With PKR (from UniProt P19525 1-551), the binding result is on record as “binds”.

Turning to PABP (from UniProt P11940 1-636), the binding entry is reported as “binds”.

Consider GCN2 (from UniProt Q9P2K8 1-1649), for which the binding entry is on record as “binds”.

These data come from paper PMC6929620.
